Source: PubChem BioAssay AID1259254 (NCATS, 2017)
This is an unselected part of about 59,000 reagents tested. Over the whole deposit, about 1,550 (2.6%) are marked active. 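G2 share is only a proxy for re-replication; each gene was hit by three separate siRNAs, and active genes were retested.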 Raw values are not corrected between plates. Reagents against one gene are numbered here. The record does not give: the amount of reagent.

Screen: 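Gene knock-downs that lead to re-replication, shown by excess G2 DNA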 (primary screen)
Cells: human HCT116 colorectal cancer cells
Reagents: single siRNA against human genes
Duration: 3 days
Detection: 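Imaged Hoechst DNA stain sorts each cell into a cycle phase by DNA amount; per plate, G2 fraction set to 0% for non-targeting and 100% for GMNN siRNA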
Reading the numbers: G2 robust z-score and G2 cells, % of GMNN control: higher = more G2 cells, more excess DNA replication; raw share of cells in G2: higher = larger share of cells with G2 DNA content
Rule for the call: 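An siRNA counts as active if its G2 robust z-score lies at least 5 MADs above the screen median; here such calls match roughly 38% of GMNN control or more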

no.	gene	siRNA no.	G2 robust z-score	G2 cells, % of GMNN control	raw share of cells in G2 (%)	call
1	BZW1	1	-0.796	-2.64	4.14	inactive
2	BZW1	2	-0.564	-1	3.52	inactive
3	BZW1	3	0.416	5.9	5.55	inactive
4	CD53	1	-0.937	-3.62	3.6	inactive
5	CD53	2	-0.0649	2.51	5.01	inactive
6	CD53	3	4.28	33.1	16.5	inactive
7	PCDHB16	1	-0.581	-1.12	5.18	inactive
8	PCDHB16	2	5.81	43.9	19.9	active
9	PCDHB16	3	1.79	15.5	9.87	inactive
10	RAB40A	1	-1.18	-5.32	2.46	inactive
11	RAB40A	2	4.94	37.7	18.5	inactive
12	RAB40A	3	0.891	9.24	10.4	inactive
13	PPIL3	1	0.307	5.12	8.28	inactive
14	PPIL3	2	1.1	10.7	7.9	inactive
15	PPIL3	3	-1.02	-4.18	2.7	inactive
16	HAO1	1	-0.478	-0.395	5.77	inactive
17	HAO1	2	-0.552	-0.916	3.9	inactive
18	HAO1	3	0.389	5.7	5.99	inactive
19	THRB-AS1	1	-0.8	-2.66	2.62	inactive
20	THRB-AS1	2	0.98	9.86	6.82	inactive
21	THRB-AS1	3	0.165	4.13	4.35	inactive
22	ZNF268	1	1.09	10.7	7.07	inactive
23	ZNF268	2	0.831	8.82	9.91	inactive
24	ZNF268	3	-0.97	-3.86	1.72	inactive
25	DCT	1	-0.855	-3.05	3.05	inactive
26	DCT	2	-0.167	1.79	5.6	inactive
27	DCT	3	0.564	6.94	7.53	inactive
28	DYDC1	1	-0.707	-2.01	2.37	inactive
29	DYDC1	2	0.0462	3.29	4.93	inactive
30	DYDC1	3	-0.907	-3.41	1.86	inactive
31	PDCL3	1	0.107	3.72	6.2	inactive
32	PDCL3	2	-0.719	-2.09	3.67	inactive
33	PDCL3	3	2.82	22.8	8.71	inactive
34	IRGM	1	-0.294	0.901	4.3	inactive
35	IRGM	2	-0.305	0.825	3.62	inactive
36	IRGM	3	0.756	8.29	7.53	inactive
37	H2BC8	1	0.126	3.86	6.84	inactive
38	H2BC8	2	2.59	21.2	12.3	inactive
39	H2BC8	3	0.231	4.6	4.97	inactive
40	SELENOK	1	0.00343	2.99	5.53	inactive
41	SELENOK	2	0.873	9.11	8.81	inactive
42	SELENOK	3	-1.18	-5.3	1.35	inactive
43	FAM156A	1	0.435	6.03	6.16	inactive
44	FAM156A	2	-0.751	-2.32	3.67	inactive
45	FAM156A	3	0.0426	3.27	4.28	inactive
46	RAC2	1	3.55	27.9	14.6	inactive
47	RAC2	2	-0.707	-2.01	3.91	inactive
48	RAC2	3	0.36	5.5	5.97	inactive
49	FAM89B	1	0.105	3.7	5.81	inactive
50	FAM89B	2	-0.174	1.74	4.69	inactive
51	FAM89B	3	0.641	7.48	5.91	inactive
52	ALDH1A2	1	1.5	13.5	10	inactive
53	ALDH1A2	2	-0.624	-1.42	3.89	inactive
54	ALDH1A2	3	-0.458	-0.254	4.62	inactive
55	SLC17A6	1	2.72	22.1	16.1	inactive
56	SLC17A6	2	0.0879	3.59	5.72	inactive
57	SLC17A6	3	0.461	6.21	6.92	inactive
58	KLK4	1	0.565	6.94	7.98	inactive
59	KLK4	2	1.6	14.2	9.94	inactive
60	KLK4	3	-0.911	-3.44	2.63	inactive
61	DRD5	1	-0.0817	2.39	6.7	inactive
62	DRD5	2	0.893	9.25	7.75	inactive
63	DRD5	3	-1.17	-5.27	1.65	inactive
64	LINC01915	1	0.507	6.53	6.66	inactive
65	LINC01915	2	0.458	6.19	5.31	inactive
66	LINC01915	3	-0.357	0.455	3.34	inactive
67	S100A1	1	-1.09	-4.73	1.58	inactive
68	S100A1	2	-0.261	1.13	5.38	inactive
69	S100A1	3	0.664	7.64	5.88	inactive
